Reference: US10301355B2, “Method of using pharmaceutical compositions comprising selective peptide-based agonists of melanocortin 1 receptor” (University of Cincinnati, priority 2012, dated 2019)
Some of these results come from one statement about several compounds together. Some ranges recur; such a range may be that of the whole group of compounds.

The chains behind the UniProt entries cited, without tags or fusion partners. Where a name states a change or a piece, a line headed by the entry shows the natural chain unless it says otherwise.
UniProt P33032: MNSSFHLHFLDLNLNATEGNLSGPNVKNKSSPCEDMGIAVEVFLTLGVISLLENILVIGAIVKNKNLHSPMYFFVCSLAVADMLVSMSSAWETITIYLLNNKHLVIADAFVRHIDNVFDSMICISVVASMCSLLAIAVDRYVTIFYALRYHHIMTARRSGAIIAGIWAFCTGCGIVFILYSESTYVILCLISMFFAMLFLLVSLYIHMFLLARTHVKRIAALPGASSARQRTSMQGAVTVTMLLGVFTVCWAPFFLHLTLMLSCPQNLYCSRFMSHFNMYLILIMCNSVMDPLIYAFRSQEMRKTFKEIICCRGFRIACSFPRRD
UniProt P41968: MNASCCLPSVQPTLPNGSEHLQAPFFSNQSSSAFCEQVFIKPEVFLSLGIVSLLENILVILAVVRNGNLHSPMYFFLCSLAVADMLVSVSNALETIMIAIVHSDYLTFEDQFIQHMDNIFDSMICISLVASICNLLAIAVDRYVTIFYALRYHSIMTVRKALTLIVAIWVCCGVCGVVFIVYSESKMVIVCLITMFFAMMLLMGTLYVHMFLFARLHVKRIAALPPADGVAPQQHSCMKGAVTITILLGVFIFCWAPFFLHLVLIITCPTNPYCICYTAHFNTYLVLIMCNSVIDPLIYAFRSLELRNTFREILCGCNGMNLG
UniProt P32245, whole entry: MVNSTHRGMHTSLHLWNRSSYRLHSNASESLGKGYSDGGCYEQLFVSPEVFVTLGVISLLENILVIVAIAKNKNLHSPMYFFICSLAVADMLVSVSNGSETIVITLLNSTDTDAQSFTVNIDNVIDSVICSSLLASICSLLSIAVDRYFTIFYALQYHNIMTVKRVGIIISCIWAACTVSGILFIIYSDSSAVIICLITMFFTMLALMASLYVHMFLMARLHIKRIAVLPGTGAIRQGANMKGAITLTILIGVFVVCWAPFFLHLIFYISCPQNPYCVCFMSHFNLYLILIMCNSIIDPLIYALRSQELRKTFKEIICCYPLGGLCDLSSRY

How the values were obtained:
Format in all cases: cell-based
hMC5R = biological target: T1, hMC5R (Homo sapiens, UniProt P33032); assay: cAMP stimulation in heterologous cells expressing hMC5R
T1 construct: expressed in transfected cells
Description: (§1) Receptor selectivity of peptide agonists for hMC1R was determined by stimulation of cAMP in heterologous cells expressing different human melanocortin receptors (MC1R, MC3R, MC4R, and MC5R).

hMC3R = biological target: T2, hMC3R (Homo sapiens, UniProt P41968); assay: cAMP stimulation in heterologous cells expressing hMC3R
T2 construct: expressed in transfected cells
Description: as §1

hMC4R = biological target: T3, hMC4R (Homo sapiens, UniProt P32245); assay: cAMP stimulation in heterologous cells expressing hMC4R
T3 construct: expressed in transfected cells
Description: as §1

N=C(N)NCCC[C@H](NC(=O)[C@@H](Cc1ccc(-c2ccccc2)cc1)NC(=O)[C@H](Cc1c[nH]cn1)NC(=O)CCCc1ccccc1)C(N)=O [LK-511, Ph(CH2)3CO-His-(D-4-Bip)-Arg-NH2]
2-7%: HMC5R % MAX. ACTIVITY (hMC5R) | HMC3R % MAX. ACTIVITY (hMC3R) | HMC4R % MAX. ACTIVITY (hMC4R)

CNC(=O)[C@H](CCCNC(=N)N)NC(=O)[C@@H](Cc1ccc(-c2ccccc2)cc1)NC(=O)[C@H](Cc1c[nH]cn1)NC(=O)CCCc1ccccc1 [LK-513, Ph(CH2)3CO-His-(D-4-Bip)-Arg-NHMe]
2-7%: HMC5R % MAX. ACTIVITY (hMC5R) | HMC3R % MAX. ACTIVITY (hMC3R) | HMC4R % MAX. ACTIVITY (hMC4R)

CC(C)(C)c1ccc(C[C@@H](NC(=O)[C@H](Cc2c[nH]cn2)NC(=O)CCCc2ccccc2)C(=O)N[C@@H](CCCNC(=N)N)C(N)=O)cc1 [LK-514, Ph(CH2)3CO-His-(D-4-tBuPhe)-Arg-NH2]
2-7%: HMC5R % MAX. ACTIVITY (hMC5R) | HMC3R % MAX. ACTIVITY (hMC3R) | HMC4R % MAX. ACTIVITY (hMC4R)
